# Source: the supplement of paper PMC12819154, “High-throughput peptide-centric local stability assay extends protein–ligand identification to membrane proteins, tissues and bacteria” (Nature Structural & Molecular Biology, 2025)
# Protein sequences, listed by entry. Tags and fused reporters are not part of them. Lines headed by an entry give the natural chain unless they say otherwise; changes in a name come on top.
# UniProt O88343: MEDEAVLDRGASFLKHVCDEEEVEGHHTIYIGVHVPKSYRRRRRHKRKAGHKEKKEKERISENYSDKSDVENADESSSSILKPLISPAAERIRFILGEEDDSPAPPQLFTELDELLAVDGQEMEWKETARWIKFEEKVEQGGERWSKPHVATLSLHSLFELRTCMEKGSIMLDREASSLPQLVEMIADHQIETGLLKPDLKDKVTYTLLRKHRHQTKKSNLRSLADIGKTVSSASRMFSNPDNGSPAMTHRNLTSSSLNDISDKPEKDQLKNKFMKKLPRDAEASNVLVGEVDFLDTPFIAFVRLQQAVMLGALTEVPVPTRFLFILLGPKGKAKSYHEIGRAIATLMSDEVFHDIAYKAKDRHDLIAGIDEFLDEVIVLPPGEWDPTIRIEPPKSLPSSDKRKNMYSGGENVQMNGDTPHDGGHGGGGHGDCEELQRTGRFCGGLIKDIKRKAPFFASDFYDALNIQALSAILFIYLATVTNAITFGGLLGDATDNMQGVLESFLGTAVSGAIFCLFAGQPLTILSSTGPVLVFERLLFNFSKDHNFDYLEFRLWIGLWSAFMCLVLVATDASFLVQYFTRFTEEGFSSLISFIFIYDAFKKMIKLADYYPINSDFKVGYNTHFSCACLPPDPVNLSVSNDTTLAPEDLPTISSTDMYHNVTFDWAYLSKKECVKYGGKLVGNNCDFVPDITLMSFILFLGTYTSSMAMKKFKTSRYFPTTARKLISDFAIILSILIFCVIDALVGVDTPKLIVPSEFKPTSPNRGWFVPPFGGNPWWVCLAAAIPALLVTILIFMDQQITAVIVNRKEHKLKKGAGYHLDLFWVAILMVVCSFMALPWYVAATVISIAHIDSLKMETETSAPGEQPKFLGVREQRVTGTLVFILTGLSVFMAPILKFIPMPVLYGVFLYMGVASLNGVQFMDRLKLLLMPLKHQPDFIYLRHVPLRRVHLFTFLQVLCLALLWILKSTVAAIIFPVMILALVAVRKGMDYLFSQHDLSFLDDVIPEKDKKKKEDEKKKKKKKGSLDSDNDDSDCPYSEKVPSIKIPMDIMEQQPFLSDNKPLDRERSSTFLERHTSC
# UniProt O54734: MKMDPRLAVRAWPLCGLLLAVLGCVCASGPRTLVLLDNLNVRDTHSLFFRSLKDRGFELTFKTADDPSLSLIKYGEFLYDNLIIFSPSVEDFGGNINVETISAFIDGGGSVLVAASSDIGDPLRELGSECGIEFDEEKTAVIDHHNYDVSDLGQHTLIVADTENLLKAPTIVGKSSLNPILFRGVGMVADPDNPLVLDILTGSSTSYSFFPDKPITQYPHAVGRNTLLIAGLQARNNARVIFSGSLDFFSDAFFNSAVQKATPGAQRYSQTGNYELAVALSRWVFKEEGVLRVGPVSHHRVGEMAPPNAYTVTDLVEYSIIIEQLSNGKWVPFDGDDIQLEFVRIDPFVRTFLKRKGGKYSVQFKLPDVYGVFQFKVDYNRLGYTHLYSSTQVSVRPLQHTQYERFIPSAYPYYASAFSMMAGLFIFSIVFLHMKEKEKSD
# UniProt O88876: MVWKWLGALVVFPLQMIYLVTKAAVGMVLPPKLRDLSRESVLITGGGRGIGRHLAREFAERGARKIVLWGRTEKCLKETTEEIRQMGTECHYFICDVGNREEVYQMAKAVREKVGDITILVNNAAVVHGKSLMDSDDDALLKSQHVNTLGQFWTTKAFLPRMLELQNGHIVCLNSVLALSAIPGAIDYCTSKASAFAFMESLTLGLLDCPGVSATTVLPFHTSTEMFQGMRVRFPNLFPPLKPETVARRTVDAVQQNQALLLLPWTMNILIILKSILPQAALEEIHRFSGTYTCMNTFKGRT
# UniProt O70228: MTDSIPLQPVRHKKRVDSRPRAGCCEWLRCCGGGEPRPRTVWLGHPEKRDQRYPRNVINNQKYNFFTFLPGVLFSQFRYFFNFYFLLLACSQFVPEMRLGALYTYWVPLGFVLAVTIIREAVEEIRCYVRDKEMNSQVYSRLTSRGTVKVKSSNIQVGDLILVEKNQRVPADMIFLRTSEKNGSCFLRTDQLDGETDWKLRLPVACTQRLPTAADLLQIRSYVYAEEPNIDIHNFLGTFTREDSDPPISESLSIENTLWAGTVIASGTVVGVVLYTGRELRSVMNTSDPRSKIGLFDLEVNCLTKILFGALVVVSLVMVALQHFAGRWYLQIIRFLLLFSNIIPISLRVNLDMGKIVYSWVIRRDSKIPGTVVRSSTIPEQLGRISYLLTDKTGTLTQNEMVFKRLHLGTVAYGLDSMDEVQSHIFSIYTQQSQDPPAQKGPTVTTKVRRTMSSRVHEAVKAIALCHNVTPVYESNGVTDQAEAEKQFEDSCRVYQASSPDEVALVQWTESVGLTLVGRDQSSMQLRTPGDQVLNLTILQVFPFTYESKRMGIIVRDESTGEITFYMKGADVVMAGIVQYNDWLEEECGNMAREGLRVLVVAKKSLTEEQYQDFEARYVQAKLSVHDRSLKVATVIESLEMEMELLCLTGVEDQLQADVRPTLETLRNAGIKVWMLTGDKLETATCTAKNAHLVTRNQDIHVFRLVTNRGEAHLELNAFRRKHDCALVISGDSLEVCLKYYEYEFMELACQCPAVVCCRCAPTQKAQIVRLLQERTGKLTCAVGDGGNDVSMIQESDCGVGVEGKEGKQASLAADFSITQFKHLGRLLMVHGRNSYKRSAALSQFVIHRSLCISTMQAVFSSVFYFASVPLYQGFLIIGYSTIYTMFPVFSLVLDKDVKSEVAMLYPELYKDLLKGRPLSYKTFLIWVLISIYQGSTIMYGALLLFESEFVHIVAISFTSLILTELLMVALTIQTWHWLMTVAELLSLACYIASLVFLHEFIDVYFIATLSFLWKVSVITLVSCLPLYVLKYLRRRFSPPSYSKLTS
# UniProt O35973, whole entry: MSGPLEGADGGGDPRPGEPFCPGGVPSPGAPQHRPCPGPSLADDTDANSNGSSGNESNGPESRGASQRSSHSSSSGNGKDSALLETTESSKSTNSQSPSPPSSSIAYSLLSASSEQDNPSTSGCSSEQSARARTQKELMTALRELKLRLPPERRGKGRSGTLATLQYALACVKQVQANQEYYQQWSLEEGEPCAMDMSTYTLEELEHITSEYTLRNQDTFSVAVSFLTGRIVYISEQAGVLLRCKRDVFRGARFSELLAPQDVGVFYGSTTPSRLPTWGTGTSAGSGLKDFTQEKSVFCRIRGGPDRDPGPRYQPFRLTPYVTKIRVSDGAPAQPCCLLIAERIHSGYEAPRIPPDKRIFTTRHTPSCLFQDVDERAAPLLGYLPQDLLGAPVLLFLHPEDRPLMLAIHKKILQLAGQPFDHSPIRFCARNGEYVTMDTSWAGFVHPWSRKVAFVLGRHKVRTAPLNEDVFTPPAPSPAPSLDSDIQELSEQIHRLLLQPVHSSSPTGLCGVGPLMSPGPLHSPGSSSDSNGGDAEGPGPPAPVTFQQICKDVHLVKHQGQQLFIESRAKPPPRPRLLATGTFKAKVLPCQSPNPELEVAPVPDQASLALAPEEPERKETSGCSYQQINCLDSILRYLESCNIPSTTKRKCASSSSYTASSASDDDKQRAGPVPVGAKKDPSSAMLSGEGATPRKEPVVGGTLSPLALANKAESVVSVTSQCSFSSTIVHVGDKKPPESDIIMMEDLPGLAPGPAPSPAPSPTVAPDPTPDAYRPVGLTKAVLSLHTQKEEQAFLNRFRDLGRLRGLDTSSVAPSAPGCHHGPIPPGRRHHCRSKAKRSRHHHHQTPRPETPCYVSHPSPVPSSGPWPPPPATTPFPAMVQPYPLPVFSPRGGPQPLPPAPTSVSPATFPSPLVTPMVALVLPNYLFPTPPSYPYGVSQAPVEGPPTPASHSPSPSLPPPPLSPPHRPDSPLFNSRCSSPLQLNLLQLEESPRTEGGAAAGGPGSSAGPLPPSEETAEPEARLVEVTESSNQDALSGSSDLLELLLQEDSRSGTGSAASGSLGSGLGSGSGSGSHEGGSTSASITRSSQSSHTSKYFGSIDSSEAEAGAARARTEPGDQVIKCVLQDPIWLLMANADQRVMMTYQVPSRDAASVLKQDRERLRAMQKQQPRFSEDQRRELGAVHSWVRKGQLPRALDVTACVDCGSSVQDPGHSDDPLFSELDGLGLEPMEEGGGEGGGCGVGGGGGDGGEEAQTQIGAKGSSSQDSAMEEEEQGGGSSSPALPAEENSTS
# UniProt O54784: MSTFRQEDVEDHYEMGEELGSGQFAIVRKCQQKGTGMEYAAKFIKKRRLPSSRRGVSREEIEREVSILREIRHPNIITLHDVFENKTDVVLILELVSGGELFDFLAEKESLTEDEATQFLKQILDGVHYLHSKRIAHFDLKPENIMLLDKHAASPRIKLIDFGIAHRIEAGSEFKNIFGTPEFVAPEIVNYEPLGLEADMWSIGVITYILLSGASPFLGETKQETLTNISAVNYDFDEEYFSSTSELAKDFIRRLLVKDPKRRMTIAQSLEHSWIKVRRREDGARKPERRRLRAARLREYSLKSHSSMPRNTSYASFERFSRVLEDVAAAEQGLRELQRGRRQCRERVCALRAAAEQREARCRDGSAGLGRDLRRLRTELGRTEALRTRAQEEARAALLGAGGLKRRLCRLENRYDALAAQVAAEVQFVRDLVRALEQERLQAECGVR
# UniProt O70496: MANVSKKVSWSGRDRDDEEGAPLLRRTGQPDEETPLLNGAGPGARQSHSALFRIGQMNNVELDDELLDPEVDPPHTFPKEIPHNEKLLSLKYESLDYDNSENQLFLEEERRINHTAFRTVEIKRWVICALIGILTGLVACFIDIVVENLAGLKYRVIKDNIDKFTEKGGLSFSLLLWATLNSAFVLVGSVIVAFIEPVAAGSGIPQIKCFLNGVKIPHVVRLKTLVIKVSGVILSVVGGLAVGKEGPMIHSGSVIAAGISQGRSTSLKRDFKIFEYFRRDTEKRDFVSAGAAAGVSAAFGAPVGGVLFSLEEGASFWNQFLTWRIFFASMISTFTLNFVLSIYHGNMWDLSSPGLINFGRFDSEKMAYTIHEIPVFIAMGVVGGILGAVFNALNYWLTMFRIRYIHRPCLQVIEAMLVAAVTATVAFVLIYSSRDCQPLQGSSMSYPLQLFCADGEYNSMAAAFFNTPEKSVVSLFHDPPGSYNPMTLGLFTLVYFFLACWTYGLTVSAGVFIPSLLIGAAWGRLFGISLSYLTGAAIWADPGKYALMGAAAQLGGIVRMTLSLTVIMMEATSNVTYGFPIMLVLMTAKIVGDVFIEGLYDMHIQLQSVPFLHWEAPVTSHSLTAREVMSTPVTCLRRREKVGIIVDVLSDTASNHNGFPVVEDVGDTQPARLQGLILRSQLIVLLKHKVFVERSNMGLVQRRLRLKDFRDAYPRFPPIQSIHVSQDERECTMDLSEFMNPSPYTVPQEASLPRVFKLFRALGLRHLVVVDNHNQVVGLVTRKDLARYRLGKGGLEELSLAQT
# UniProt O35648: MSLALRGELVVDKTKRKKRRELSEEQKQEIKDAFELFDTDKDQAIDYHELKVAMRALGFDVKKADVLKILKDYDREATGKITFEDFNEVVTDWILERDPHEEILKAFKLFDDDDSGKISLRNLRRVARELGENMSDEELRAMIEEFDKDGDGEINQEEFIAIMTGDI
# UniProt O55098: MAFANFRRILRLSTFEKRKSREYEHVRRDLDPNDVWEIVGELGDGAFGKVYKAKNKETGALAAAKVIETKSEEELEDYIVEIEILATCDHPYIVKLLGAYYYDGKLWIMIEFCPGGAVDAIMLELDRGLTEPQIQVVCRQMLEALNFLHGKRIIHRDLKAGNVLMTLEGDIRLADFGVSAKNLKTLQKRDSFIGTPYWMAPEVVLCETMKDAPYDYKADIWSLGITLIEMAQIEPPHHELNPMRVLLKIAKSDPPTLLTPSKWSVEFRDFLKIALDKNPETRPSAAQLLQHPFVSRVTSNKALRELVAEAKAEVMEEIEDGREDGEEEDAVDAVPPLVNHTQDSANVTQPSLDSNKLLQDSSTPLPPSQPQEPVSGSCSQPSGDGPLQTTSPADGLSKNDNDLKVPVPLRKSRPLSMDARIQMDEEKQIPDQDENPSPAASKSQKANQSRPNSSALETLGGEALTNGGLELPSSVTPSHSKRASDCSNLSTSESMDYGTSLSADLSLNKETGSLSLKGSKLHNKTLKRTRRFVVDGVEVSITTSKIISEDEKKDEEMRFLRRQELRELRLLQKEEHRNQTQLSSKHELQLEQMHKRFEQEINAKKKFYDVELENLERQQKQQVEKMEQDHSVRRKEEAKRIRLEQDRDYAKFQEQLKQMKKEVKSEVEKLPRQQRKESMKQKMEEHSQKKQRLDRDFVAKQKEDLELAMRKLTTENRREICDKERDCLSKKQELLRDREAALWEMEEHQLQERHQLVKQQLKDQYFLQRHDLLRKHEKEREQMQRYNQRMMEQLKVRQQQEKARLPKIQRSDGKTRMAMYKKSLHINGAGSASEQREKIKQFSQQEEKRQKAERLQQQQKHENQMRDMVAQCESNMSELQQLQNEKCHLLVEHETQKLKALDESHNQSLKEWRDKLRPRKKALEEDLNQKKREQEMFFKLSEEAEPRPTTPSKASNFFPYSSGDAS
# The list shows a part of the results. Most entries show no effect beyond the scatter of the controls.
# Compound: CN[C@@H]1C[C@H]2O[C@@](C)([C@@H]1OC)n1c3ccccc3c3c4c(c5c6ccccc6n2c5c31)C(=O)NC4 [staurosporine]
# Experiment: log2 fold change of tryptic peptide abundance, ligand vs vehicle (limited proteolysis) (log2 ratio); higher = more trypsin-susceptible (destabilized)
# Settings: ligand concentration: 20 uM; sample: mouse liver crude lysate; replicate design: treated separately
row,Target,log2 fold change
1,"UniProt O55028 (peptide sequence: QLLDDHK, peptide start residue: 157)",-0.581
2,"UniProt O70435 (peptide sequence: SNFGYNIPLK, peptide start residue: 101)",0.403
3,"UniProt O88343 (peptide sequence: SYHEIGR, peptide start residue: 336)",-0.164
4,"UniProt O54734 (peptide sequence: VGPVSHHR, peptide start residue: 293)",-0.4
5,"UniProt O88876 (peptide sequence: VRFPNLFPPLKPETVAR, peptide start residue: 232)",-0.126
6,"UniProt O70228 (peptide sequence: GEAHLELNAFRR, peptide start residue: 798)",0.223
7,"UniProt O35973 (peptide sequence: AVLSLHTQKEEQAFLNR, peptide start residue: 781)",0.832
8,"UniProt O54784 (peptide sequence: MTIAQSLEHSWIK, peptide start residue: 264)",-0.769
9,"UniProt O70496 (peptide sequence: HLVVVDNHNQVVGLVTR, peptide start residue: 766)",-0.289
10,"UniProt O35648 (peptide sequence: GELVVDKTK, peptide start residue: 7)",-0.181
11,"UniProt O55098 (peptide sequence: IKQFSQQEEK, peptide start residue: 839)",-0.534

# Part of the list above, with tabs:
row	Target	log2 fold change
10	UniProt O35648 (peptide sequence: GELVVDKTK, peptide start residue: 7)	-0.181
11	UniProt O55098 (peptide sequence: IKQFSQQEEK, peptide start residue: 839)	-0.534
